From the supplement of paper PMC12823440, “Inhibitors supercharge kinase turnover through native proteolytic circuits” (Nature, 2025)
Counter-ions that a name gives are not always drawn. This is one part of the list. The calls rarely recur for the same compound in another form.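 Kinases were expressed as nanoluciferase fusions in K562 cells and luminescence was read every 4 h between 2 and 18 h as percent of control, DMSO set to 100% and a positive control to 0%. A time point counts as decreased when the signal drops significantly (2 sigma). The hit call is the authors' own, does not follow from the count of time points alone, and its rule is not shown.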

Protein sequences, listed by entry. Tags and fused reporters are not part of them.
UniProt P29317, whole entry: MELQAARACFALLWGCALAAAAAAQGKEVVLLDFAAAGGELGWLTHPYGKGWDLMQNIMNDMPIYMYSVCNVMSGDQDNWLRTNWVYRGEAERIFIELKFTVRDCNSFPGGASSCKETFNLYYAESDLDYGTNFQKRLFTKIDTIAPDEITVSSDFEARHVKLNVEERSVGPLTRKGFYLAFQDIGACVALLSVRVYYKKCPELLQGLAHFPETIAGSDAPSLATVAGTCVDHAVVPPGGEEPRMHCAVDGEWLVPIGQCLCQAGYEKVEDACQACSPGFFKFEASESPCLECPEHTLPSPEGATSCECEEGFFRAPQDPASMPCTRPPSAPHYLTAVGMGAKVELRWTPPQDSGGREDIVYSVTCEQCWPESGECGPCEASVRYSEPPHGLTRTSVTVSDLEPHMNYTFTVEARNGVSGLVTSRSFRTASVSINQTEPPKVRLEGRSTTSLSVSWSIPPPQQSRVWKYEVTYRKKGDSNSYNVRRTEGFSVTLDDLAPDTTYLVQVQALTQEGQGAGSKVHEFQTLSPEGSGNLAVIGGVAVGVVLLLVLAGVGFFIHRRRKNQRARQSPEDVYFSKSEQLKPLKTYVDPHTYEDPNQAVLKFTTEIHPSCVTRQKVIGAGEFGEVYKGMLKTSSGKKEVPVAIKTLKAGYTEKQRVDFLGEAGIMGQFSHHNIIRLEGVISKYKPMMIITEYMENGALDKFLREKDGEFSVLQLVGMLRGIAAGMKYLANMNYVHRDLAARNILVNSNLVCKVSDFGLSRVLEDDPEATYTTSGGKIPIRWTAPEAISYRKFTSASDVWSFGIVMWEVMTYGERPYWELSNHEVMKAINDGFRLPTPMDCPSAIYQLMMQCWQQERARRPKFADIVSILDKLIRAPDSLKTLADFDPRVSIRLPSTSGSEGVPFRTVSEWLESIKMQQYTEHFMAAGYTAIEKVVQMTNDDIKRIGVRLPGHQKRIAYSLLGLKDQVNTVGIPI
UniProt P21860, whole entry: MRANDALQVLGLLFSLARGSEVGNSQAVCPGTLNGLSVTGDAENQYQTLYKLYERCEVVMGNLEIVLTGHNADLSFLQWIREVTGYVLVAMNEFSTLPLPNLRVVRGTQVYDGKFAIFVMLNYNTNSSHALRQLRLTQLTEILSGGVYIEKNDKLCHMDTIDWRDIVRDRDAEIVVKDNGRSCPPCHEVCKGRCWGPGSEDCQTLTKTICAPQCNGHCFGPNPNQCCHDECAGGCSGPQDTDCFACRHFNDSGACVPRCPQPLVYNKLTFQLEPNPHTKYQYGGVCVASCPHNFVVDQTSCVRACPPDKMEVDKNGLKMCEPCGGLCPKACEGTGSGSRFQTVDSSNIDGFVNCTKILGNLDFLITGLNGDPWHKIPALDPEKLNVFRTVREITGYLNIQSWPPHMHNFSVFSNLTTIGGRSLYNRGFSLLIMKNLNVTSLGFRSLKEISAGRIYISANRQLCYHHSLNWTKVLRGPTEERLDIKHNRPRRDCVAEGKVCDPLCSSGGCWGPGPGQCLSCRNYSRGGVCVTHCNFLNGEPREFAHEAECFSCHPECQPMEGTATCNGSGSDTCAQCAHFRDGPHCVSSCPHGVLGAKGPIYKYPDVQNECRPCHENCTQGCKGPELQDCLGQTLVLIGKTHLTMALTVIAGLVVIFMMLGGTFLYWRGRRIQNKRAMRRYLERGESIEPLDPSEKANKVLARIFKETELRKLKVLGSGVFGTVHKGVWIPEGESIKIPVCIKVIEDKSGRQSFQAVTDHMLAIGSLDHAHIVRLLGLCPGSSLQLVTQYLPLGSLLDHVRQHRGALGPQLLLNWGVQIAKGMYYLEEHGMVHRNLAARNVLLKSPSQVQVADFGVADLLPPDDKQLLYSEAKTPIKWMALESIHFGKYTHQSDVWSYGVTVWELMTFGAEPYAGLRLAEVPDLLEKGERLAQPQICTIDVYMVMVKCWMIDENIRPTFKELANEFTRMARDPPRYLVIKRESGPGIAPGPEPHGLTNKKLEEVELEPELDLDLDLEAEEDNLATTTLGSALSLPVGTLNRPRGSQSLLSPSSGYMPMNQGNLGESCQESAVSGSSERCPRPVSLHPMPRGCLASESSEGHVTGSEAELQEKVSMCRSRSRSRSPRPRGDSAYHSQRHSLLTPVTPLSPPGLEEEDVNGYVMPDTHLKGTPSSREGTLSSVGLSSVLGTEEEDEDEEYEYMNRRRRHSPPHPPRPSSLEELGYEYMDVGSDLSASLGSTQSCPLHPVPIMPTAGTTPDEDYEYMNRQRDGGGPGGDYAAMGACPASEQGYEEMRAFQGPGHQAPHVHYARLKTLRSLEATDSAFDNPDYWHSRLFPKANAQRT
UniProt Q15303, whole entry R711C: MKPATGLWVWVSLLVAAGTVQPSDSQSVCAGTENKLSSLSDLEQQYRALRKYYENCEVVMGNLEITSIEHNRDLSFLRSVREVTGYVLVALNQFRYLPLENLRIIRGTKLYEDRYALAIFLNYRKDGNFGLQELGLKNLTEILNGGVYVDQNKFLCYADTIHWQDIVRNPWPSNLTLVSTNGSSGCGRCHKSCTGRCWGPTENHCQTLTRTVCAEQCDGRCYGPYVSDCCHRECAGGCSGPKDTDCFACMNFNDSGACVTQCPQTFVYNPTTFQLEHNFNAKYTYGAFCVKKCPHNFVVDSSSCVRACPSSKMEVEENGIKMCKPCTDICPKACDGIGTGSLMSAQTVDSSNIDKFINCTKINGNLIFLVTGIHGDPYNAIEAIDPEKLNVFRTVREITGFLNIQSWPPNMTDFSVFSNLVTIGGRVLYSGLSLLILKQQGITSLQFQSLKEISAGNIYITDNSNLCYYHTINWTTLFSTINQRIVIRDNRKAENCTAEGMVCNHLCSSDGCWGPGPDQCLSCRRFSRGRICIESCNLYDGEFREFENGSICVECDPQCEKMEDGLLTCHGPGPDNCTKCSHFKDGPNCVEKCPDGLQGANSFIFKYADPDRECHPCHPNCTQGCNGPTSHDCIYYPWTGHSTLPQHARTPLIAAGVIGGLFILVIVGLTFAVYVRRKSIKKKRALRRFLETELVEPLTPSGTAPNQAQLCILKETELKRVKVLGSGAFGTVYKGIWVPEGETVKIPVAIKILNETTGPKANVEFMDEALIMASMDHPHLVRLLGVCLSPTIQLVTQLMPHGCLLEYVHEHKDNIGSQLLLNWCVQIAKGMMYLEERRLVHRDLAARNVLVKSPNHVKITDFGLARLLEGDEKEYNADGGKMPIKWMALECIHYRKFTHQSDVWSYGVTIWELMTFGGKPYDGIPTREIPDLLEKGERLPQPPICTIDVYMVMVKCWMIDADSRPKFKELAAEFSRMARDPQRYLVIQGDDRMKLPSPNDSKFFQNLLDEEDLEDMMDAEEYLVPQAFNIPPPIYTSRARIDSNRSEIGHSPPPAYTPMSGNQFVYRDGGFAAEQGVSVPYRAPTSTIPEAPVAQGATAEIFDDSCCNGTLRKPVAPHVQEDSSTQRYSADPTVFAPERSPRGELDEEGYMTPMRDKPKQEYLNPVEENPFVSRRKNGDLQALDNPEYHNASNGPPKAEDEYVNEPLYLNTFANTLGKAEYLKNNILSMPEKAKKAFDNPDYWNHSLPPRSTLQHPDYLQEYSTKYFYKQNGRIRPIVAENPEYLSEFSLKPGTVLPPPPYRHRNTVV

Experiments:
Assay in all cases: kinase-Nluc reporter destabilization hit call (1 = scored as downregulated) (binary); higher = compound decreases kinase abundance
Settings in all cases: K562; 2-18 h
EGFR = EGFR (UniProt P00533)
EGFR_G719S = EGFR_G719S (UniProt P00533)
EGFR_G719S_T790M = EGFR_G719S_T790M (UniProt P00533)
EGFR_L718V = EGFR_L718V (UniProt P00533)
EGFR_L858R = EGFR_L858R (UniProt P00533)
EGFR_L861Q = EGFR_L861Q (UniProt P00533)
EGFR_T790M = EGFR_T790M (UniProt P00533)
EPHA2 = EPHA2 (UniProt P29317)
ERBB3 = ERBB3 (UniProt P21860)
[1] = molecular target: ERBB4_R711C (clone: ERBB4_mut) (UniProt Q15303)

Measured: kinase-Nluc reporter destabilization hit call

Nc1cc(C(F)(F)F)c(-c2nc(N3CCOCC3)nc(N3CCOCC3)n2)cn1 [Bimiralisib] (10 µM)
inactive: EGFR 0 | EGFR_G719S 0 | EGFR_G719S_T790M 0 | EGFR_L718V 0 | EGFR_L858R 0 | EGFR_L861Q 0 | EGFR_T790M 0 | EPHA2 = 0 | ERBB3 = 0 | [1] 0

CN(CC(=O)N(Cc1ccc(C2CCCCC2)cc1)c1ccc(C(=O)O)c(O)c1)S(=O)(=O)c1c(F)c(F)c(F)c(F)c1F (2.5 µM)
inactive: EGFR 0 | EGFR_G719S 0 | EGFR_G719S_T790M 0 | EGFR_L718V 0 | EGFR_L858R 0 | EGFR_L861Q 0 | EGFR_T790M 0 | EPHA2 = 0 | ERBB3 = 0 | [1] 0

c1ccc(-c2oc3ncnc(NC[C@@H]4CCCO4)c3c2-c2ccccc2)cc1 (2.5 µM)
inactive: EGFR 0 | EGFR_G719S 0 | EGFR_G719S_T790M 0 | EGFR_L718V 0 | EGFR_L858R 0 | EGFR_L861Q 0 | EGFR_T790M 0 | EPHA2 = 0 | ERBB3 = 0 | [1] 0

COc1ccc2c(c1OC)OC1c3ccc(O)cc3OCC21 (stereo not given) [Methylnissolin] (10 µM)
inactive: EGFR 0 | EGFR_G719S 0 | EGFR_G719S_T790M 0 | EGFR_L718V 0 | EGFR_L858R 0 | EGFR_L861Q 0 | EGFR_T790M 0 | EPHA2 = 0 | ERBB3 = 0 | [1] 0

[O-][n+]1cccc(-c2nc3c(Cl)cccc3cc2[C@@H](Nc2ncnc3cccnc23)C(F)(F)F)c1 [Seletalisib] (10 µM)
inactive: EGFR 0 | EGFR_G719S 0 | EGFR_G719S_T790M 0 | EGFR_L718V 0 | EGFR_L858R 0 | EGFR_L861Q 0 | EGFR_T790M 0 | EPHA2 = 0 | ERBB3 = 0 | [1] 0

CCC(C)(C)C(=O)N(O)Cc1ccccc1 (10 µM)
inactive: EGFR 0 | EGFR_G719S 0 | EGFR_G719S_T790M 0 | EGFR_L718V 0 | EGFR_L858R 0 | EGFR_L861Q 0 | EGFR_T790M 0 | EPHA2 = 0 | ERBB3 = 0 | [1] 0

Cn1cc(-c2ccc3nnc(C(F)(F)c4ccc5ncccc5c4)n3n2)cn1 (10 µM)
inactive: EGFR 0 | EGFR_G719S 0 | EGFR_G719S_T790M 0 | EGFR_L718V 0 | EGFR_L858R 0 | EGFR_L861Q 0 | EGFR_T790M 0 | EPHA2 = 0 | ERBB3 = 0 | [1] 0

Fc1c(Br)cccc1Nc1ncnc2cc3c(cc12)OCCO3 (2.5 µM)
inactive: EGFR 0 | EGFR_G719S 0 | EGFR_G719S_T790M 0 | EGFR_L718V 0 | EGFR_L858R 0 | EGFR_L861Q 0 | EGFR_T790M 0 | EPHA2 = 0 | ERBB3 = 0 | [1] 0

CC(=O)NCCc1c[nH]c2ccc(O)cc12 [N-Acetyl-5-hydroxytryptamine] (10 µM)
inactive: EGFR 0 | EGFR_G719S 0 | EGFR_G719S_T790M 0 | EGFR_L718V 0 | EGFR_L858R 0 | EGFR_L861Q 0 | EGFR_T790M 0 | EPHA2 = 0 | ERBB3 = 0 | [1] 0

Sorted by SMILES length (falling): part of the list above.
Nc1cc(C(F)(F)F)c(-c2nc(N3CCOCC3)nc(N3CCOCC3)n2)cn1 [Bimiralisib] (10 µM)
inactive: EGFR 0 | EGFR_G719S 0 | EGFR_G719S_T790M 0 | EGFR_L718V 0 | EGFR_L858R 0 | EGFR_L861Q 0 | EGFR_T790M 0 | EPHA2 = 0 | ERBB3 = 0 | [1] 0

Cn1cc(-c2ccc3nnc(C(F)(F)c4ccc5ncccc5c4)n3n2)cn1 (10 µM)
inactive: EGFR 0 | EGFR_G719S 0 | EGFR_G719S_T790M 0 | EGFR_L718V 0 | EGFR_L858R 0 | EGFR_L861Q 0 | EGFR_T790M 0 | EPHA2 = 0 | ERBB3 = 0 | [1] 0

CCC(C)(C)C(=O)N(O)Cc1ccccc1 (10 µM)
inactive: EGFR 0 | EGFR_G719S 0 | EGFR_G719S_T790M 0 | EGFR_L718V 0 | EGFR_L858R 0 | EGFR_L861Q 0 | EGFR_T790M 0 | EPHA2 = 0 | ERBB3 = 0 | [1] 0

Next structures follow.

Cc1ccc(-c2ncn(-c3ccc(Nc4nccc(-c5cccc(N6CCOCC6)c5)n4)cc3)n2)cn1 (10 µM)
inactive: EGFR 0 | EGFR_G719S 0 | EGFR_G719S_T790M 0 | EGFR_L718V 0 | EGFR_L858R 0 | EGFR_L861Q 0 | EGFR_T790M 0 | EPHA2 = 0 | ERBB3 = 0 | [1] 0

CCc1c(C)sc(NC(=S)NC(=O)c2ccc(Cl)cc2)c1C(N)=O (10 µM)
inactive: EGFR 0 | EGFR_G719S 0 | EGFR_G719S_T790M 0 | EGFR_L718V 0 | EGFR_L858R 0 | EGFR_L861Q 0 | EGFR_T790M 0 | EPHA2 = 0 | ERBB3 = 0 | [1] 0

COc1ccccc1/C=C1\C(=O)Nc2ccccc21 (10 µM)
inactive: EGFR 0 | EGFR_G719S 0 | EGFR_G719S_T790M 0 | EGFR_L718V 0 | EGFR_L858R 0 | EGFR_L861Q 0 | EGFR_T790M 0 | EPHA2 = 0 | ERBB3 = 0 | [1] 0

CCc1ccc(C(=O)COc2ccc(CC3SC(=O)NC3=O)cc2)nc1 (stereo not given) (10 µM)
inactive: EGFR 0 | EGFR_G719S 0 | EGFR_G719S_T790M 0 | EGFR_L718V 0 | EGFR_L858R 0 | EGFR_L861Q 0 | EGFR_T790M 0 | EPHA2 = 0 | ERBB3 = 0 | [1] 0

CC(C)c1cc(/C=C(\C#N)C(N)=O)cc(C(C)C)c1O (10 µM)
inactive: EGFR 0 | EGFR_G719S 0 | EGFR_G719S_T790M 0 | EGFR_L718V 0 | EGFR_L858R 0 | EGFR_L861Q 0 | EGFR_T790M 0 | EPHA2 = 0 | ERBB3 = 0 | [1] 0

Cn1cc(-c2cc3c(N4CCN(c5ncc([C@@](C)(N)c6ccc(F)cc6)cn5)CC4)ncnn3c2)cn1 [Avapritinib] (2.5 µM)
inactive: EGFR 0 | EGFR_G719S 0 | EGFR_G719S_T790M 0 | EGFR_L718V 0 | EGFR_L858R 0 | EGFR_L861Q 0 | EGFR_T790M 0 | EPHA2 = 0 | ERBB3 = 0 | [1] 0

CN(C)c1nc2c(Br)c(Br)c(Br)c(Br)c2n1CC(=O)O (10 µM)
inactive: EGFR 0 | EGFR_G719S 0 | EGFR_G719S_T790M 0 | EGFR_L718V 0 | EGFR_L858R 0 | EGFR_L861Q 0 | EGFR_T790M 0 | EPHA2 = 0 | ERBB3 = 0 | [1] 0

O=C(O)c1ccc(-c2c[nH]c3ncc(-c4ccccc4)cc23)cc1C1CCCC1 (2.5 µM)
inactive: EGFR 0 | EGFR_G719S 0 | EGFR_G719S_T790M 0 | EGFR_L718V 0 | EGFR_L858R 0 | EGFR_L861Q 0 | EGFR_T790M 0 | EPHA2 = 0 | ERBB3 = 0 | [1] 0

O=c1cc(-c2ccc(O)c(O)c2O)oc2ccccc12 (10 µM)
inactive: EGFR 0 | EGFR_G719S 0 | EGFR_G719S_T790M 0 | EGFR_L718V 0 | EGFR_L858R 0 | EGFR_L861Q 0 | EGFR_T790M 0 | EPHA2 = 0 | ERBB3 = 0 | [1] 0

CC(C)c1ccc(CC(=O)N2CCN(c3ccc(C#N)nn3)CC2)cc1 (10 µM)
inactive: EGFR 0 | EGFR_G719S 0 | EGFR_G719S_T790M 0 | EGFR_L718V 0 | EGFR_L858R 0 | EGFR_L861Q 0 | EGFR_T790M 0 | EPHA2 = 0 | ERBB3 = 0 | [1] 0

C[C@H]1[C@H](OC(=O)CCC(=O)O)O[C@@H]2O[C@@]3(C)CC[C@H]4[C@H](C)CC[C@@H]1[C@@]24OO3 [Artesunate] (2.5 µM)
inactive: EGFR 0 | EGFR_G719S 0 | EGFR_G719S_T790M 0 | EGFR_L718V 0 | EGFR_L858R 0 | EGFR_L861Q 0 | EGFR_T790M 0 | EPHA2 = 0 | ERBB3 = 0 | [1] 0

c1cc(-c2cnn3cc(-c4ccc(N5CCNCC5)cc4)cnc23)c2cccnc2c1 (2.5 µM)
inactive: EGFR 0 | EGFR_G719S 0 | EGFR_G719S_T790M 0 | EGFR_L718V 0 | EGFR_L858R 0 | EGFR_L861Q 0 | EGFR_T790M 0 | EPHA2 = 0 | ERBB3 = 0 | [1] 0

CC(C)(C)Cn1c(N)nc2ccc(-c3[nH]c(C(C)(C)C)nc3-c3ccc(F)cc3)nc21 [Ralimetinib dimesylate] (2.5 µM)
inactive: EGFR 0 | EGFR_G719S 0 | EGFR_G719S_T790M 0 | EGFR_L718V 0 | EGFR_L858R 0 | EGFR_L861Q 0 | EGFR_T790M 0 | EPHA2 = 0 | ERBB3 = 0 | [1] 0

CCOc1c([C@H](C)n2nc(C)c3c(N)ncnc32)cc(Cl)c(F)c1[C@@H]1CNC(=O)C1 [Parsaclisib (hydrochloride)] (10 µM)
inactive: EGFR 0 | EGFR_G719S 0 | EGFR_G719S_T790M 0 | EGFR_L718V 0 | EGFR_L858R 0 | EGFR_L861Q 0 | EGFR_T790M 0 | EPHA2 = 0 | ERBB3 = 0 | [1] 0

O=c1ccoc2cc(O)ccc12 [7-Hydroxy-4H-chromen-4-one] (10 µM)
inactive: EGFR 0 | EGFR_G719S 0 | EGFR_G719S_T790M 0 | EGFR_L718V 0 | EGFR_L858R 0 | EGFR_L861Q 0 | EGFR_T790M 0 | EPHA2 = 0 | ERBB3 = 0 | [1] 0

C[C@@H]1C[C@H]2O[C@@]3(O[C@@H]2C(C)(C)O)[C@H](O)[C@@]2(C)[C@@H]4CC[C@H]5C(C)(C)[C@@H](O[C@@H]6OC[C@H](O)[C@H](O)[C@H]6O)CC[C@@]56C[C@@]46CC[C@]2(C)[C@@H]13 [Cimiracemoside C] (10 µM)
inactive: EGFR 0 | EGFR_G719S 0 | EGFR_G719S_T790M 0 | EGFR_L718V 0 | EGFR_L858R 0 | EGFR_L861Q 0 | EGFR_T790M 0 | EPHA2 = 0 | ERBB3 = 0 | [1] 0

C=CC(=O)Nc1cccc(Oc2nc(Nc3ccc(N4CCN(C)CC4)cc3)nc3ccoc23)c1 [Poseltinib] (10 µM)
inactive: EGFR 0 | EGFR_G719S 0 | EGFR_G719S_T790M 0 | EGFR_L718V 0 | EGFR_L858R 0 | EGFR_L861Q 0 | EGFR_T790M 0 | EPHA2 = 0 | ERBB3 = 0 | [1] 0

Cn1cc(-c2ccc(F)c(C(F)(F)F)c2)nc1C1CCN(c2ncnc3[nH]ncc23)CC1 (10 µM)
inactive: EGFR 0 | EGFR_G719S 0 | EGFR_G719S_T790M 0 | EGFR_L718V 0 | EGFR_L858R 0 | EGFR_L861Q 0 | EGFR_T790M 0 | EPHA2 = 0 | ERBB3 = 0 | [1] 0

O=C(Nc1cccc(-c2nncn2C2CC2)c1)c1cc(-n2cnc(C3CC3)c2)ccn1 (10 µM)
inactive: EGFR 0 | EGFR_G719S 0 | EGFR_G719S_T790M 0 | EGFR_L718V 0 | EGFR_L858R 0 | EGFR_L861Q 0 | EGFR_T790M 0 | EPHA2 = 0 | ERBB3 = 0 | [1] 0

C=CC(=O)N1CCC(Oc2cc3c(Nc4ccc(Cl)c(Cl)c4F)ncnc3cc2OC)CC1 [Poziotinib] (2.5 µM)
inactive: EGFR 0 | EGFR_G719S 0 | EGFR_G719S_T790M 0 | EGFR_L718V 0 | EGFR_L858R 0 | EGFR_L861Q 0 | EGFR_T790M 0 | EPHA2 = 0 | ERBB3 = 0 | [1] 0
